Taken from: PubChem BioAssay AID652243 (Drosophila RNAi Screening Center, 2013)
The screen tested about 24,000 reagents; this is a random part of those with a known target gene and a result. Of all reagents, 246 (1%) were called active. 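Plates not normalised; calls are printed but the firefly/Renilla ratio behind them is not deposited; fold cut for lowering reported inconsistently.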 Raw values vary from plate to plate and are shown uncorrected. A plus sign joins genes that one reagent is predicted to hit. Not stated in the record: the amount of reagent.

- Aim: 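Fly regulators of androgen-dependent reporter output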 (primary screen)
- Cells: Drosophila S2R+ cells
- Reagents: long dsRNA against Drosophila genes
- Duration: 72 h (48 h, then 24 h hormone)
- Conditions: synthetic androgen R1881 at 10 nM for 24 h
- Measurement: 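Firefly light from an androgen-responsive reporter and Renilla control light per well, raw and unnormalised, for each of two replicates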
- Direction: firefly reporter light: higher = more light from androgen-responsive reporter; Renilla control light: higher = more constitutive control signal (cell number, transfection)
- Rule for the call: 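Hit when the log firefly-to-Renilla ratio dropped or increased by a fixed fold versus the mean of GFP or LacZ controls across duplicate plates; lowering cut given as 1.5 and as 3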
- Calls: active = hit: reporter lowered or raised; inactive = no hit

target gene	dsRNA	firefly reporter light, replicate 1	firefly reporter light, replicate 2	Renilla control light, replicate 1	Renilla control light, replicate 2	call
Smyd4-4 (GeneID 36299)	DRSC05956	7.85e5	8.71e5	1.15e6	1.36e6	inactive
CG34300 (GeneID 5740334)	DRSC38807	8.99e5	9.18e5	2.00e6	1.92e6	inactive
CG4297 (GeneID 33222)	DRSC00651	85475	57192	5.77e5	7.83e5	inactive
COX6AL2 + Ir75d	DRSC10081	1.83e5	1.50e5	2.25e6	1.49e6	inactive
CG31810 + CG31809	DRSC25411	9.69e5	7.80e5	7.01e5	9.30e5	inactive
CG7557 (GeneID 39278)	DRSC10878	4.51e5	2.36e5	8.46e5	8.14e5	inactive
CG7557 (GeneID 39278)	DRSC28227	3.93e5	1.06e6	1.33e6	1.93e6	inactive
CG12426 (GeneID 43342)	DRSC14516	2.32e5	1.69e5	2.44e6	2.71e6	inactive

Records above whose target name begins with C or c (7):
target gene	dsRNA	firefly reporter light, replicate 1	firefly reporter light, replicate 2	Renilla control light, replicate 1	Renilla control light, replicate 2	call
CG34300 (GeneID 5740334)	DRSC38807	8.99e5	9.18e5	2.00e6	1.92e6	inactive
CG4297 (GeneID 33222)	DRSC00651	85475	57192	5.77e5	7.83e5	inactive
COX6AL2 + Ir75d	DRSC10081	1.83e5	1.50e5	2.25e6	1.49e6	inactive
CG31810 + CG31809	DRSC25411	9.69e5	7.80e5	7.01e5	9.30e5	inactive
CG7557 (GeneID 39278)	DRSC10878	4.51e5	2.36e5	8.46e5	8.14e5	inactive
CG7557 (GeneID 39278)	DRSC28227	3.93e5	1.06e6	1.33e6	1.93e6	inactive
CG12426 (GeneID 43342)	DRSC14516	2.32e5	1.69e5	2.44e6	2.71e6	inactive

The results go on.
target gene	dsRNA	firefly reporter light, replicate 1	firefly reporter light, replicate 2	Renilla control light, replicate 1	Renilla control light, replicate 2	call
CG43312 (GeneID 12798458)	DRSC11559	4.86e5	6.13e5	5.00e5	6.07e5	inactive
CG31820 (GeneID 318961)	DRSC21318	6.33e5	5.75e5	2.56e6	2.29e6	inactive
CG31820 (GeneID 318961)	DRSC29683	1.43e6	1.09e6	2.29e6	1.82e6	inactive
Myo61F (GeneID 38153)	DRSC22144	1.37e6	1.22e6	2.17e6	1.95e6	inactive
Myo61F (GeneID 38153)	DRSC27633	1.96e5	1.75e5	3.04e5	4.69e5	inactive
CG18823 (GeneID 59184)	DRSC18168	2.25e5	2.10e5	3.53e6	2.16e6	inactive
Ccn (GeneID 39972)	DRSC09504	2.69e5	1.86e5	8.84e5	7.35e5	inactive
Ccn (GeneID 39972)	DRSC09506	1.87e5	2.43e5	7.21e5	5.54e5	inactive
Ccn (GeneID 39972)	DRSC10062	70874	1.17e5	7.94e5	8.63e5	inactive
Ccn (GeneID 39972)	DRSC10063	75423	78775	2.36e6	1.50e6	inactive
eIF3h (GeneID 45682)	DRSC01995	6.44e5	7.32e5	2.02e6	1.72e6	inactive
eIF3h (GeneID 45682)	DRSC27567	3.92e5	3.25e5	6.07e5	3.77e5	inactive
CG15395 (GeneID 33447)	DRSC00409	80478	89502	5.75e5	6.94e5	inactive
CG14262 (GeneID 43286)	DRSC14757	1.76e5	1.62e5	2.72e6	2.85e6	inactive
Swip-1 (GeneID 35158)	DRSC02083	8.94e5	1.23e6	1.70e6	1.33e6	inactive
Swip-1 (GeneID 35158)	DRSC02084	2.23e5	2.72e5	2.08e6	2.46e6	inactive
